PMC3098871
Construct, isoform or probe ends are uncertain for at least one entry. At least one result comes from cells or an extract, where the contact may be indirect.

Chains of the proteins cited; added tags and fusions are not shown. Residues count along the entry.
UniProt P84022, 2-425: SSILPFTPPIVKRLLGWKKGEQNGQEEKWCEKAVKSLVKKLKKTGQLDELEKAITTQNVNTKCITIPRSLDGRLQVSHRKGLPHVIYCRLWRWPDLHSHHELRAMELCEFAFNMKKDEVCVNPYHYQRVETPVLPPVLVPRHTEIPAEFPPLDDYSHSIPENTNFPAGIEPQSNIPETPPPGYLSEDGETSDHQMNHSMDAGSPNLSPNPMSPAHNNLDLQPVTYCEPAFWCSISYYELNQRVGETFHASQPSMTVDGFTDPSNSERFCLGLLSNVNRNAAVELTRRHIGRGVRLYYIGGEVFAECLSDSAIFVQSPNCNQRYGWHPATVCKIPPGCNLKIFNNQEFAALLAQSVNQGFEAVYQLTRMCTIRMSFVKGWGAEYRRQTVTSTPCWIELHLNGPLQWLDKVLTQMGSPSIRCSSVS

Target: SMAD3 (A549 nuclear extract) (human (A549 cells)) (UniProt P84022)
Assay: EMSA supershift
Details: poly(dI-dC) 0.25 mg/mL, anti-SMAD3 supershift, complexes partially abolished by unlabeled probe (40 and 200 ng); 20% glycerol, 5 mM MgCl2, 2.5 mM EDTA, 25 mM DTT, 200 mM NaCl, 50 mM Tris-HCl pH 7.6, 0.25 mg/mL poly(dI-dC), 20 min at room temperature; 6% native PAGE; protein in an extract; label: 5'-Cy5 on strand 1

Question: Does “GATTGCTGGTCGTTTGTTGTGGCT (double strand) [FOXA2 promoter probe (-42 to -19)]” bind?
Answer: Result: binds
